Here are results for four sequences from publication PMC3139631.

Data set [1] concerns the target T1, CosR (rCosR) (UniProt Q0PBF4).
T1 sequence (looked up, limits assumed): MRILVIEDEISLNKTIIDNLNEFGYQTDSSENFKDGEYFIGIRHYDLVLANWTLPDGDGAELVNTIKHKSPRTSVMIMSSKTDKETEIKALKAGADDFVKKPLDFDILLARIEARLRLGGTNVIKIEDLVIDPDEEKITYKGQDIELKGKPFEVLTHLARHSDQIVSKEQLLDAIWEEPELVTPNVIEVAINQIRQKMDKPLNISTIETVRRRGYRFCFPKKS
Put plainly: competition with a labelled probe. The conditions noted are these: EMSA: 20 mM HEPES pH 7.6, 1 mM EDTA, 10 mM (NH4)2SO4, 5 mM DTT, 0.2% Tween 20, 30 mM KCl, 0.1 ug poly(dI-dC) in 10 ul, 37 C 15 min, recombinant protein, probe letters rebuilt from the primers and the genome. (In general: A gel shift assay detects complexes by their altered migration in electrophoresis.)

The target in data set [2] is T1, CosR (rCosR). Briefly: EMSA. The conditions noted are these: rCosR 0-3.2 nM, probe 0.2 nM; EMSA: 20 mM HEPES pH 7.6, 1 mM EDTA, 10 mM (NH4)2SO4, 5 mM DTT, 0.2% Tween 20, 30 mM KCl, 0.1 ug poly(dI-dC) in 10 ul, 37 C 15 min; recombinant protein; label: 32P; probe letters rebuilt from the primers and the genome.

For at least one entry, the source does not settle the construct or the ends of the probe. For some assays here: Negatives hold for the conditions tested. Tags and fusion partners may be left off the protein sequences shown.

On to “GCGAAGGATCCTAGTAATGCTGAGATTAGTACAACTTTTTTCATATTTTCCTCCTTATGAATAATTTTTAGTTGCAAATTAATTGTAATTATTAAAAATCAACAAATAGATATTTTTTGTAAAAATATTTCAAAAAAATATAATTTTTTATATATATTTAAATTATTATTAAAATATATTATAAATGTATCTTATTTTATTTAGATTAAATAAATAGAAATTTTACCCACTAAGCTTTTAAGATATTTTTACTCTTTTTAATATTATTATGGTAATATTTTCAATATCAAACTAAAAATAAAGGAGAAATTATGTTTGAATTAAGAAAATTACCTTATGATACCAATGCTTTTGGTGATTTCTAGAGTGCTG (double strand) [sodB promoter EMSA probe]”, for which the binding result was “binds” with CosR (rCosR) [1] (unlabeled N1 competes with labeled N1, label: 32P) and “binds” with CosR (rCosR) [2].
“TGCTTTTGGTGATTTTTTGAGTGCTGAAACTTTTAGCTATCATCATGGAAAACATCACAATACTTATGTTACAAATCTAAATAATCTTATTAAAGATACTGAATTTGCAGGTAAAGATCTTGTAAGTATTATCAAAACTTCAAATGGGGGCGTATTTAATAACGCAGCTCAAGTTTATAATCATGATTTTTATTTTGATTGCATTAAGCCAAGTACAGGCTGTGGCTGTGGCGGTTCATGTCAAAGTATAGATGCTAATTTACAAGCGGCACTAGAAAAAGAATTTGGATCTTTAGAAAATTTCAAAGCTGAATTTATCAAAGGCGCTACAGGAGTTTTTGGTTCAGGATGGTTTTGGTTAGTTTATAATACTAAAAATCAAAAACTAGAATTTGTAGGTACTTCAAACGCAGCTACACCAATTACTGAAGATAAAGTTCCTTTACTTGTTGTAGATGTTTGGGAACATGCTTATTATGTAGATCATCGCAATGCACGCCCTGCTTATTTAGAAAAATTCTATGCTCATATTAACTGGGAATTTGTTGCAAAAGCTTACGAATGGGCTTTAAAAGAAGGCATGGGATCAGTTAGCTTTTAT (double strand) [sodB internal coding region (I.C)]”: the binding result with CosR (rCosR) [1] (versus labeled sodB promoter N1) was “no binding”.
Regarding “TTTTTGCCAAGATATTCAGCCACGCCTTTAGGGTTAGCTTTCATACCTTCATCGCCCTTATTCCATCCTGCAGGACAAACTTCACCATGCTCATTTGTAAAAAGCATAGTATCAACCATTCTTAACATTTCATCTATATTTCTACCTAGTGGTAAATCATTAACCACAGCATGGCGAACTGTTCCATCAGCATCAAGCAAGAACGAACCACGAAGGGCAACTGCTTCTGCATAAAGTACATCAAAATTTCTAGCAATCTGCTTAGTTAAATCAGCAACAAGTGGGAATTTAACCTGACCAATACCACCTTGATTTACTGGAGT (double strand) [ahpC internal coding region (I.C)]”, in the data set with CosR (rCosR) [1] (versus labeled ahpC promoter N4), the binding result is on record as “no binding”.
For “TTTTTGGGCAATTTGTTTGGCTTCATCTAAAGAATGCATTGCGCAAGTTCCGCATTGGTAGATATTAAGTTCAGGAATTTTGCTTTGATCGCTTACGCTTAAAACATCTTTCATGGCTGCTTCCCAAGCTTTTGCAATACTTTTCTCATCAGGTGTTCCAATTAAACTCATATAAAAACCCGTGCGACAACCCATAGGTGAAATATCAATAATTTCAACTGAATTTGAATTAAGATGATCTCTCATAAATCCTGCGAATAAATGTTCTAAGGTATGAGTACCTTTTTCGCTCATAATGTCTTTA (double strand) [luxS internal coding region (I.C)]”, the binding result with CosR (rCosR) [1] (versus labeled luxS promoter N3) is “no binding”.
